This is one part of the list.

Amino acid sequences for entries named in this document (tags omitted). A change or cut given only in a name is not applied to a line headed by its entry.
UniProt P49773: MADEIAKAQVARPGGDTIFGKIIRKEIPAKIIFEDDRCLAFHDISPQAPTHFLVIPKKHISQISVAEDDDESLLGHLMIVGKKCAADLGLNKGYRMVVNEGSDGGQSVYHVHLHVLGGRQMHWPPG
UniProt P09651: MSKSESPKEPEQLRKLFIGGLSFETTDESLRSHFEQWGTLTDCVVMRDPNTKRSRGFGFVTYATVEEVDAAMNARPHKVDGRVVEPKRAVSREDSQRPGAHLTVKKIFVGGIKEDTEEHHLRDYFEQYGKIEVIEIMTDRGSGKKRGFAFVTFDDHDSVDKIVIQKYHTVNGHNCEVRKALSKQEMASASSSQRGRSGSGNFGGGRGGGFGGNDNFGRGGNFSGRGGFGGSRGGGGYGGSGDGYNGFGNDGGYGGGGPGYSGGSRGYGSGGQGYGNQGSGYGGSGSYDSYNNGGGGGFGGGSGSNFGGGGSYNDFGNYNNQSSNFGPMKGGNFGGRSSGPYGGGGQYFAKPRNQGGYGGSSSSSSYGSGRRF
UniProt Q8TCT9: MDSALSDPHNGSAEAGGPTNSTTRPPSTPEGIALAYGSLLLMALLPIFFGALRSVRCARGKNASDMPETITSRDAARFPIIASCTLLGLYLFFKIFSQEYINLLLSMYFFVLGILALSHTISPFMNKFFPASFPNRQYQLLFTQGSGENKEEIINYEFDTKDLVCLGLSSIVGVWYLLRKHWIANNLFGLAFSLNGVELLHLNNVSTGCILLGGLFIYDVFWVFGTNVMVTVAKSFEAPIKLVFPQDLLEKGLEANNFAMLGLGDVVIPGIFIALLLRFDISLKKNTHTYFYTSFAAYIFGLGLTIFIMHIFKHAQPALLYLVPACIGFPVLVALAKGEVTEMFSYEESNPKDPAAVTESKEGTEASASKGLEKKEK
UniProt Q53GQ0: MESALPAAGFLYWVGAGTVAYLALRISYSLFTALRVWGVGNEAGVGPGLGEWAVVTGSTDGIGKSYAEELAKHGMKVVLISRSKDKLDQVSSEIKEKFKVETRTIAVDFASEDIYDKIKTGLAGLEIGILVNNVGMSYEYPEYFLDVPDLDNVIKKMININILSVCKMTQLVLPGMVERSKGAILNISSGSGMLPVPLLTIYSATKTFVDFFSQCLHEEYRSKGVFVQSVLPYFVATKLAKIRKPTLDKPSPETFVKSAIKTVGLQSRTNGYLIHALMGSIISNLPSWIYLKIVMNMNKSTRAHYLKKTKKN
UniProt Q6AI08: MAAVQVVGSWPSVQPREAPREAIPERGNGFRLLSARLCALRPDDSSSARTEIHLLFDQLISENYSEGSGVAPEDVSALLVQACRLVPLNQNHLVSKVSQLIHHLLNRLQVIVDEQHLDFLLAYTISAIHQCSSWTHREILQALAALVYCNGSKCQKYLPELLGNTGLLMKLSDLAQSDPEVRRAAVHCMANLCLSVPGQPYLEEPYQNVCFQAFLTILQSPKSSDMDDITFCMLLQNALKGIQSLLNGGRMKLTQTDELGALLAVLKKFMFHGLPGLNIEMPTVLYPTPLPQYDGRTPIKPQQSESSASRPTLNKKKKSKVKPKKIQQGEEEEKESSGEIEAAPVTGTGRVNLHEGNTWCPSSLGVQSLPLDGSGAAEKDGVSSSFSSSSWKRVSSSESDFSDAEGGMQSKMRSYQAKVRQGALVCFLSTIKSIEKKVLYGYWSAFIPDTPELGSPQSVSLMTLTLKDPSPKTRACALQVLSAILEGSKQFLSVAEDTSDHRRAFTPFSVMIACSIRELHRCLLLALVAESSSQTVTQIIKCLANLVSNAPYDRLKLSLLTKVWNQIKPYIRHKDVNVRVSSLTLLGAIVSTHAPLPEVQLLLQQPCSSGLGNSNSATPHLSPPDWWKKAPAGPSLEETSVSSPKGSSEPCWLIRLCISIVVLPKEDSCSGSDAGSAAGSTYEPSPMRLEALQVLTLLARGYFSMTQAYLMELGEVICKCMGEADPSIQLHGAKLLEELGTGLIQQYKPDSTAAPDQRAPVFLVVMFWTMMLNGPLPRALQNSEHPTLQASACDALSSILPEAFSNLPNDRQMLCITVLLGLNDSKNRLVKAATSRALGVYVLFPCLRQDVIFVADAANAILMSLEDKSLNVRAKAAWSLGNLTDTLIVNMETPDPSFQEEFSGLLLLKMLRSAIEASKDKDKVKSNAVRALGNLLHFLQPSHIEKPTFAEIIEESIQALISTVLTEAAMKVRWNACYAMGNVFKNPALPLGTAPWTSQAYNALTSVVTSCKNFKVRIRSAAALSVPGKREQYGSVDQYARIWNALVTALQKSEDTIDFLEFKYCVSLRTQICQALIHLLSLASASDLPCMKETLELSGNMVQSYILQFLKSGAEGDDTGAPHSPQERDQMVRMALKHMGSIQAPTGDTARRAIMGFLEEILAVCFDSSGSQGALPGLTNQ
UniProt Q86YM7: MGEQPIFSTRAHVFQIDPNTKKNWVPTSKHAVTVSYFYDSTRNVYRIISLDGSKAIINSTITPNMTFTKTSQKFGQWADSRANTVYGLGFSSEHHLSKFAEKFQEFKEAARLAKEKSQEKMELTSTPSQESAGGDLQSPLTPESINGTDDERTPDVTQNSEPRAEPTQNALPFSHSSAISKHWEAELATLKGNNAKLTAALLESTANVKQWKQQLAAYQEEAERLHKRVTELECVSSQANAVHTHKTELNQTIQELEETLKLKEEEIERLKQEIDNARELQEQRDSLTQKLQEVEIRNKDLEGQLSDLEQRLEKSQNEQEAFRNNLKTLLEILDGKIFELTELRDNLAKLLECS
UniProt O75506: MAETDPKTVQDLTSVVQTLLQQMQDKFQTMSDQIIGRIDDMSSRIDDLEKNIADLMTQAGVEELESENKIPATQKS
UniProt Q9NWY4: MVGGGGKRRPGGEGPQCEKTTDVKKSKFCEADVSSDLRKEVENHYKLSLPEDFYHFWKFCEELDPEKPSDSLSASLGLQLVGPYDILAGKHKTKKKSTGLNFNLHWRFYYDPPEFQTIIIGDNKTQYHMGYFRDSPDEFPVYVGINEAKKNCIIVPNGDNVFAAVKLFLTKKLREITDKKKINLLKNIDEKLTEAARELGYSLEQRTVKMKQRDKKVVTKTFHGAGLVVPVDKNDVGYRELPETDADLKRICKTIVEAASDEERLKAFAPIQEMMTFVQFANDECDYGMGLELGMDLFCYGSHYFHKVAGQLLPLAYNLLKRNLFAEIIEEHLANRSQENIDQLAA
UniProt Q9UPZ3: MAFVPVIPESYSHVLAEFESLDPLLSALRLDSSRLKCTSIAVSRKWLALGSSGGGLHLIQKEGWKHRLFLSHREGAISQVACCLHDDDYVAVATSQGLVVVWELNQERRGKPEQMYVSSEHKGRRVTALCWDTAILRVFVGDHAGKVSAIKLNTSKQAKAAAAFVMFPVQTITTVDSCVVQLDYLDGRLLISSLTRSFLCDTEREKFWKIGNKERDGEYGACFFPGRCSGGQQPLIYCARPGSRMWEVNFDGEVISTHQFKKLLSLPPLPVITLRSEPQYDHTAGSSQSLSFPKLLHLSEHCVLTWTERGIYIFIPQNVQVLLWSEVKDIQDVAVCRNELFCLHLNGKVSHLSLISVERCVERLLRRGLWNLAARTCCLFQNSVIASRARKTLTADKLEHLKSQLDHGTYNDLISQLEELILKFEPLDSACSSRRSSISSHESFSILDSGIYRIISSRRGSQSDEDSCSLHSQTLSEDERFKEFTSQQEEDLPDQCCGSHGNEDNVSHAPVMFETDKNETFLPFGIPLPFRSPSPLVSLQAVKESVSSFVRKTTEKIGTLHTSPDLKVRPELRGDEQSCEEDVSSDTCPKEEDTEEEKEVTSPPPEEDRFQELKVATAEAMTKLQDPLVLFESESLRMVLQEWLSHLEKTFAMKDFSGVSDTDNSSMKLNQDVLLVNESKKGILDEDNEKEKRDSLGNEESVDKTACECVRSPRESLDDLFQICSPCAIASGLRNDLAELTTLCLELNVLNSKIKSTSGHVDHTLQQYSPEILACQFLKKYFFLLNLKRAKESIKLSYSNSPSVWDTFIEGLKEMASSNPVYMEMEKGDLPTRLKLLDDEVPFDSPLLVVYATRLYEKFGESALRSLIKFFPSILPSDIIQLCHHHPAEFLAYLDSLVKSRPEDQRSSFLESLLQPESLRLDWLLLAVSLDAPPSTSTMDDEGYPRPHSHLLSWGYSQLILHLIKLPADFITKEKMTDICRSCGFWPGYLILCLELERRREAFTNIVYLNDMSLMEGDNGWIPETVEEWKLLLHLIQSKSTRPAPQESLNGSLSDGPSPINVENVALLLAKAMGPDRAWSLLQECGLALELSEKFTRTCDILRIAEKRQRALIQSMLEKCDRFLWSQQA
UniProt P22626: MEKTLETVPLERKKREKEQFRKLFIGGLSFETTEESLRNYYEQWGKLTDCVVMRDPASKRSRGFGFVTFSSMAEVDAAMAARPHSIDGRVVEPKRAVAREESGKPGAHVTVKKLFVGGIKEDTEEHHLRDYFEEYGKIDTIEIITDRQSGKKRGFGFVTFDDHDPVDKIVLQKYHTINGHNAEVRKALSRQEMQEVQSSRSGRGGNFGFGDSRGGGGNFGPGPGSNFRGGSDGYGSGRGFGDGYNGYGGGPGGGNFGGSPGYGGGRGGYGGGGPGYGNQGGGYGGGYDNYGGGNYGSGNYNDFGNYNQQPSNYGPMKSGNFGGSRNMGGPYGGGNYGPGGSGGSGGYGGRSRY
UniProt Q03933: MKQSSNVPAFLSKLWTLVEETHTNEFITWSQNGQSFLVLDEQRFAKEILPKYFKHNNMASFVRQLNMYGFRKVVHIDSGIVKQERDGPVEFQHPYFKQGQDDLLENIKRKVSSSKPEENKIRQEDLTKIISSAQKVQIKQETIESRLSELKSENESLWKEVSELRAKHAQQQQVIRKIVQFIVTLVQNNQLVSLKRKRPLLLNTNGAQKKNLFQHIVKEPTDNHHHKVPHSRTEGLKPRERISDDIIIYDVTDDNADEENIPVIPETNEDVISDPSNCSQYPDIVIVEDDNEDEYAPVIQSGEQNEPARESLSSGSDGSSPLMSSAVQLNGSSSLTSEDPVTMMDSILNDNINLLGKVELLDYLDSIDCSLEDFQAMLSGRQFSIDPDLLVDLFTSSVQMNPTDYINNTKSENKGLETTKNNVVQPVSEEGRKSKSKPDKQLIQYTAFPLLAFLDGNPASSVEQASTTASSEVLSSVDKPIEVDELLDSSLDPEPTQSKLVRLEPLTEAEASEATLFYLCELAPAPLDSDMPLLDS
UniProt Q9NRV9: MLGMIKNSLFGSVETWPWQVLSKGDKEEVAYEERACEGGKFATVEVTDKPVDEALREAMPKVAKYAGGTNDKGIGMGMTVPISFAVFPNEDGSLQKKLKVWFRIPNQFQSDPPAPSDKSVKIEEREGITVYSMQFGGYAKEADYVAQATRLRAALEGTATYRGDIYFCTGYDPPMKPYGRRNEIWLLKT
UniProt P30519: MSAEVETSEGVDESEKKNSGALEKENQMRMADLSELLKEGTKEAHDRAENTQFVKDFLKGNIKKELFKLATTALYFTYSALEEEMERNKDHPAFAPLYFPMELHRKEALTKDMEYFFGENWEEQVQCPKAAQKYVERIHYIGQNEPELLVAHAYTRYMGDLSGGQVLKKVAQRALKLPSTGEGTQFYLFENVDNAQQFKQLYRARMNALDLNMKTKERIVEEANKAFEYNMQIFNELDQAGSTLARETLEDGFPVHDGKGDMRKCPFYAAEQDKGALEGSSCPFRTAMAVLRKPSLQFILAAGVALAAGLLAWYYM
UniProt Q9BXL5: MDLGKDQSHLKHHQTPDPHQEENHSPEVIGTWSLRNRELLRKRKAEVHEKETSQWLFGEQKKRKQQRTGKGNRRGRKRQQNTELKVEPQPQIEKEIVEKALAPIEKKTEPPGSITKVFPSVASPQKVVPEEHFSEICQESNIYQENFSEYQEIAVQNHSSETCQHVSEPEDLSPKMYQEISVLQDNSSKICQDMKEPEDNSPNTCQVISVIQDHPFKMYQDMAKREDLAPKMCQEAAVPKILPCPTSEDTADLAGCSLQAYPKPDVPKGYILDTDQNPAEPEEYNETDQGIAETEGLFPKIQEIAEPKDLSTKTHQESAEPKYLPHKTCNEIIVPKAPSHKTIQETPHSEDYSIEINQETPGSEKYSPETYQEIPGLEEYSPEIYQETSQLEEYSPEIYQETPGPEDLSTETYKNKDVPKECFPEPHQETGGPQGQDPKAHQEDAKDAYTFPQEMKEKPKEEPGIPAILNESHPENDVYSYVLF
UniProt Q13151: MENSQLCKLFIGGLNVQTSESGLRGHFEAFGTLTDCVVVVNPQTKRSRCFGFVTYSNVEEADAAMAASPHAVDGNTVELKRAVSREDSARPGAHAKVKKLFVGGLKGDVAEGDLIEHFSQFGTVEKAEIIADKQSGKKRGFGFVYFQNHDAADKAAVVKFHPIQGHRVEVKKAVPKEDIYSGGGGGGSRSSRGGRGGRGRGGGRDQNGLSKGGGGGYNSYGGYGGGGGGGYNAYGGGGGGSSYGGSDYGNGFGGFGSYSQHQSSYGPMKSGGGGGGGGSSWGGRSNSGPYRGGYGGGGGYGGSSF

Compound in the first experiment: CCn1c(C(=O)N(C2CC2)C2CC2)cc2c3c(ncn3C)c(Nc3cc(C)n(C)n3)nc21
The experiment is described as follows: log2 fold change, soluble protein after heating vs DMSO (PISA); higher = thermal stabilisation; K562 lysate, 10 uM; active = over 0.2 and 3.5 SD of the protein, either way, in both replicates (recomputed). In a few lines: (§1)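 Following dounce homogenisation of K562 pellets in PBS pH 7.4 with 1 mM MgCl2, crude extract at 1 mg/mL protein was incubated for 30 min with 10 μM compound. Aliquots were then heated for 3 min over 48°C-58°C and pooled, NP-40 was added to 0.5% at 4°C, and soluble protein was recovered as the supernatant at 21,000xg for 90 min. Channel-sum-equalised TMTpro 16plex LC-MS/MS quantified this protein. Each value, from duplicates, is a log-two fold change in thermal stability relative to solvent controls.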
Turning to HINT1 (UniProt P49773), the log2 fold change was inactive: -0.016.

HPS4 isoform 4 (UniProt Q9NQG7): the log2 fold change is inactive: 0.027.

On to HMCN1 (UniProt Q96RW7), for which the log2 fold change was inactive: -0.36.

Turning to HMGB2 (UniProt P26583), the log2 fold change was inactive: 0.018.

In the case of HNRNPA1 (UniProt P09651), the log2 fold change is inactive: 0.001.

For HIRA (UniProt P54198), the log2 fold change was inactive: 0.

As for HSPA14 (UniProt Q0VDF9), the log2 fold change was inactive: 0.013.

Compound in the next experiment: CCn1cc(-c2ccnc3[nH]c(-c4cccc(CN(C)C)c4)cc23)c(-c2ccc(NC(=O)N(C)C)cc2)n1
The description is as above. In a few lines: as §1
In the case of HECTD3 (UniProt Q5T447), the log2 fold change was inactive: -0.004.

As for HM13 isoform 2 (UniProt Q8TCT9), the log2 fold change was inactive: -0.07.

As for HSD17B12 (UniProt Q53GQ0), the log2 fold change is active: -0.304.

HLCS (UniProt P50747): the log2 fold change is active: 0.293.

As to HEATR6 (UniProt Q6AI08), the log2 fold change was inactive: -0.001.

On to HOMER1 (UniProt Q86YM7), for which the log2 fold change was inactive: 0.049.

In the case of HOXB9 (UniProt P17482), the log2 fold change was inactive: -0.015.

As for HSBP1 (UniProt O75506), the log2 fold change is inactive: 0.357.

With HPF1 (UniProt Q9NWY4), the log2 fold change is inactive: -0.011.

On to HNRNPH1 (UniProt P31943), for which the log2 fold change is inactive: -0.089.

Take HPS5 (UniProt Q9UPZ3): the log2 fold change is inactive: 0.327.

With HEXA (UniProt P06865), the log2 fold change was inactive: -0.031.

Take HNRNPA2B1 (UniProt P22626): the log2 fold change was inactive: -0.054.

For HNRNPDL (UniProt O14979), the log2 fold change was inactive: 0.043.

Consider HSF2 (UniProt Q03933), for which the log2 fold change was inactive: -0.181.

For HEBP1 (UniProt Q9NRV9), the log2 fold change is inactive: 0.038.

HIST2H2BF isoform 2 (UniProt Q5QNW6): the log2 fold change was inactive: 0.046.

As for HK1 isoform 2 (UniProt P19367), the log2 fold change was inactive: -0.008.

With HMOX2 (UniProt P30519), the log2 fold change was inactive: -0.041.

As to HERPUD1 (UniProt Q15011), the log2 fold change is inactive: 0.065.

For HEMGN (UniProt Q9BXL5), the log2 fold change was inactive: 0.097.

For the target HIST2H2BC (UniProt Q6DN03), the log2 fold change was active: 0.291.

For HNRNPA0 (UniProt Q13151), the log2 fold change was inactive: 0.102.

Take HINT1 (UniProt P49773): the log2 fold change is inactive: 0.012.

On to HMCN1 (UniProt Q96RW7), for which the log2 fold change is inactive: 0.343.

Consider HMGB2 (UniProt P26583), for which the log2 fold change is active: 0.283.

Regarding HNRNPA1 (UniProt P09651), the log2 fold change is inactive: 0.193.

For HIRA (UniProt P54198), the log2 fold change is inactive: -0.155.

HSPA14 (UniProt Q0VDF9): the log2 fold change was inactive: 0.04.

(Values after the supplement of paper PMC10849652.)
